Measured values: PMC7819943, “Rice protein-binding microarrays: a tool to detect cis-acting elements near promoter regions in rice”
The other results are listed elsewhere or left out.

molecular target: T1, OsSMF1 (Oryza sativa, UniProt Q6ZLB0 1-436); assay: protein-binding microarray (RPBM); PBS, 2% BSA, 51.3 ng/ul salmon testes DNA, 50 uM zinc acetate, 200 nM TF, 25 C, 1 h; high values mean tight binding; details: protein: recombinant; tags: N-terminal polyhistidine and DsRed monomer fusion (pET32a); chain copies: 2; label: CyDye5-dUTP incorporated in the synthesized complementary strand; 3' TTTTT single-stranded linker to array surface; dsDNA, one strand shown
T1 sequence: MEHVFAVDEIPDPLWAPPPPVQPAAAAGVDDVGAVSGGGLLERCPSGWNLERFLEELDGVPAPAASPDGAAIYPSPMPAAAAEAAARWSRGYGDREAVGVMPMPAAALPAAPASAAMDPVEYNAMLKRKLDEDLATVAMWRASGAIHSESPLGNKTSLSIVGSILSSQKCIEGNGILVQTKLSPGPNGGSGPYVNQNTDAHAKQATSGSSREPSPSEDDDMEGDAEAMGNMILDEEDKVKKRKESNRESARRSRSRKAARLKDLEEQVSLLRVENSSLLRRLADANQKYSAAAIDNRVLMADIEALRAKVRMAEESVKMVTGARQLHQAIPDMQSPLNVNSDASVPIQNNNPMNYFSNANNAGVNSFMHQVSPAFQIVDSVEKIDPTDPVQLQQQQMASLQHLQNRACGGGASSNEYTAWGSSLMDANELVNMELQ
In short: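 Binding signal is defined as the fluorescence intensity of each feature in arbitrary units, read on an Axon 4000B scanner. Transcription factors with N-terminal polyhistidine and DsRed fusions came from E. coli BL21-CodonPlus and were purified on Ni–NTA. They were incubated at 200 nM for 1 h at 25 °C on a custom Agilent array that had been made double-stranded with Cy5-dUTP, with 50 µM zinc acetate present, and the array was washed.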

Row | Sequence | binding signal
1 | TTGACAAATTTTCTAAGTTTGCTCATTTCATTCCTTTAGCCGGAGTCACCTAGTGCAG | 3300 fluorescence intensity (a.u.)
2 | TATGAGTATCCTATATACATATATATACATATATATATACCGGAGTCACCTAGTGCAG | 27300 fluorescence intensity (a.u.)
3 | CGTGTCCAACACTACAGCAGCGCCTCTGCCACCAGCCAACCGGAGTCACCTAGTGCAG | 3740 fluorescence intensity (a.u.)
4 | CGATCACGTTATAAATTTTAGCGTCGGATTTCATGCTCTCCGGAGTCACCTAGTGCAG | 6620 fluorescence intensity (a.u.)
5 | GCGGGTGCTCTTGCGGGCAGATCCAGCAGTGACAATGACTCGGAGTCACCTAGTGCAG | 3280 fluorescence intensity (a.u.)
6 | AAGATGGTCACGTCTACGAGCACGCGGGTCAGAAAACGGACGGAGTCACCTAGTGCAG | 3380 fluorescence intensity (a.u.)
7 | CTTACAGCATCAAGAACATGGAGAACACGTCAGAAACTAACGGAGTCACCTAGTGCAG | 5700 fluorescence intensity (a.u.)
8 | GCTCGAAGCTGACATGGCGATGACGGGGACGGCGCCCTGGCGGAGTCACCTAGTGCAG | 8950 fluorescence intensity (a.u.)
9 | GTCACCATGTGAACACGTATGCTTCTCTTCATTCATTCTTCGGAGTCACCTAGTGCAG | 7220 fluorescence intensity (a.u.)
10 | GATACTGGACGAGAGCGTGGAATGCGCGGTGAGACTTGGTCGGAGTCACCTAGTGCAG | 38800 fluorescence intensity (a.u.)
11 | CCACATATCCACTTAACCAGTTAGATTATTCGGTATATCCCGGAGTCACCTAGTGCAG | 4230 fluorescence intensity (a.u.)
12 | AACAACCAGAGCTTTGGCTCTGTTCATCCAAAGGCGTTCCCGGAGTCACCTAGTGCAG | 24200 fluorescence intensity (a.u.)
13 | TGGAGAGGGAGGAGGAAGAAGATGAGGGGTGAGTATGACACGGAGTCACCTAGTGCAG | 4020 fluorescence intensity (a.u.)
14 | GCACGATAGGCTGTCGTGCCTTCGTTCGAACCGGCACGACCGGAGTCACCTAGTGCAG | 27100 fluorescence intensity (a.u.)
15 | TCGTCGCCGCTGTCGTGGCCTCCTTGAGCCCTTGACGAGGCGGAGTCACCTAGTGCAG | 5100 fluorescence intensity (a.u.)
16 | ATGTCTGCGGCCGTCACGTGCAGTATTTATCCGCCGACCCCGGAGTCACCTAGTGCAG | 4810 fluorescence intensity (a.u.)
17 | CCGCACGCCAAGTCCCCACGCTGACCCACCTCGCTGCGTGCGGAGTCACCTAGTGCAG | 5320 fluorescence intensity (a.u.)
18 | GGTTTACTTGTTTGGTCGGCGCTACACGTGGTGTAATGAGCGGAGTCACCTAGTGCAG | 5950 fluorescence intensity (a.u.)
19 | CTCCATATGGATGACAGGGAAAGATATTTCTTTAAGGTTACGGAGTCACCTAGTGCAG | 3320 fluorescence intensity (a.u.)
20 | AACCGGACTGGTTTCTCTTACGTGGCTCCCTTTACATTACCGGAGTCACCTAGTGCAG | 14000 fluorescence intensity (a.u.)
21 | GGCTTACCGCTAGGGAAGAAGTGGTACGATGTGGGGATAGCGGAGTCACCTAGTGCAG | 22000 fluorescence intensity (a.u.)

In a second layout: results already given.
Row,Sequence,binding signal
4,CGATCACGTTATAAATTTTAGCGTCGGATTTCATGCTCTCCGGAGTCACCTAGTGCAG,6620 fluorescence intensity (a.u.)
5,GCGGGTGCTCTTGCGGGCAGATCCAGCAGTGACAATGACTCGGAGTCACCTAGTGCAG,3280 fluorescence intensity (a.u.)

(listing goes on)

Row | Sequence | binding signal
22 | ATTACAGTACGATTGTACTGTAATTACATCTGTCAAATTTCGGAGTCACCTAGTGCAG | 18600 fluorescence intensity (a.u.)
23 | AGTGTCTCTATTATCACAAAACTATAGGTTTTAGCATTGTCGGAGTCACCTAGTGCAG | 21000 fluorescence intensity (a.u.)
24 | GTAGTAGTATACTCCTTGTCAGTCAGTCTGTAGCTAGTCACGGAGTCACCTAGTGCAG | 3560 fluorescence intensity (a.u.)
25 | CCTCCCCACGTCGCCAAATCCACCCACGTCGCCGCCGATCCGGAGTCACCTAGTGCAG | 5060 fluorescence intensity (a.u.)
26 | GCCACTGAGCCATGCCACGGCATCGGCCTTCTCCTCGGCACGGAGTCACCTAGTGCAG | 4310 fluorescence intensity (a.u.)
27 | TCAAATTCTTGCGTGTCCATGTCACTACCCTTTTGTAACTCGGAGTCACCTAGTGCAG | 7090 fluorescence intensity (a.u.)
28 | TGGCTCGCCGCAGCAGAAGGGGATAAGAGGGATTATGACACGGAGTCACCTAGTGCAG | 3710 fluorescence intensity (a.u.)
29 | GCTTGCCAAATGTCAACGCACGAGTTGTACTCTCTTATTGCGGAGTCACCTAGTGCAG | 3420 fluorescence intensity (a.u.)
30 | GCTGCCGTGCTGCACCTATAAATTCACATGCACCGGCATGCGGAGTCACCTAGTGCAG | 3540 fluorescence intensity (a.u.)
31 | ATGGAACGGCGACACGGCCTTGTGTGGGCATGGCAGGCGGCGGAGTCACCTAGTGCAG | 33400 fluorescence intensity (a.u.)
32 | TTTGAGGCAGATGGCTGAAGACCACCATTGCCACCTCAAGCGGAGTCACCTAGTGCAG | 3190 fluorescence intensity (a.u.)
33 | CGGCGGAGGAGGAGGAGGAGGGGTGGGGAAGAAGAGGGGACGGAGTCACCTAGTGCAG | 4120 fluorescence intensity (a.u.)
34 | GAGCCCATTGTGAAATCTGTTTTGTACCCTTAGTCATCGTCGGAGTCACCTAGTGCAG | 4020 fluorescence intensity (a.u.)
35 | TGAACTTGGAAGGGTAGGGTCTGCGCTTGTCCTGACGAGGCGGAGTCACCTAGTGCAG | 3470 fluorescence intensity (a.u.)
36 | GGTGGAGCTTTCTCACAAAATGAACTAGAAAGGTGAAACTCGGAGTCACCTAGTGCAG | 34700 fluorescence intensity (a.u.)
37 | CGCCGCGCGCTGCCCGCACGCACCCACCCACGTCGCGTCACGGAGTCACCTAGTGCAG | 6510 fluorescence intensity (a.u.)
38 | CAGCAATGCTATGTTTAATTTAACCACGCACAGAGCAAGGCGGAGTCACCTAGTGCAG | 27600 fluorescence intensity (a.u.)
39 | AACAAAACAATGTTTATATATGTCTTCATTTGAACATATTCGGAGTCACCTAGTGCAG | 25400 fluorescence intensity (a.u.)
40 | TGGCTAAGCAATAGCTATAGTAGTAGCTCGAATATACCCACGGAGTCACCTAGTGCAG | 25700 fluorescence intensity (a.u.)
41 | CACGTTTCGTAAAGTACACGTCACCATTGATTAGCGAATACGGAGTCACCTAGTGCAG | 6630 fluorescence intensity (a.u.)
42 | CTGGGAGGCCTCACTTCCAAATAACTTCTTGTCCAACGAACGGAGTCACCTAGTGCAG | 20200 fluorescence intensity (a.u.)
